# Test results as given in ChEMBL document CHEMBL4513156, “CO-ADD screening of NCPRI (Romania) compounds”.
# This is one part of the list. Results with a measured potency or affinity are listed apart.
# Test system: Acinetobacter baumannii
# Settings: Concentration 32 ug.mL-1; ASSAY_TEST Inhibition of Bacterial Growth; detection method Absorption (OD600); MEDIA CAMHB; plate type 384well; NBS; CORNING #3640; time 18 hr
row,Compound,Inhibition [%]
1,O=C(N/N=C1\CC[C@@H]2[C@H]1[C@H](OC(=O)c1ccccc1)C[C@@H]2OC(=O)c1ccccc1)c1ccncc1,6.2
2,COC(=O)CCCCCC[C@@H]1[C@@H](/C=N/NC(=O)c2ccncc2)[C@H](O)C[C@@H]1O,5.73
3,O=C1C[C@@H]2[C@@H](C=NNC(=O)c3ccncc3)[C@@H](C[C@H]2Cl)O1,13.25
4,O=C1C[C@H]2[C@H](/C=N/NC(=O)c3ccncc3)[C@H](C[C@@H]2Cl)O1,10.91
5,O=C(NNC(=O)[C@@H]1C[C@H](C(=O)O)[C@@H]2CC=C[C@@H]21)c1ccncc1,10.12
6,O=C(N/N=C1/C[C@@H]2[C@@H](C(=O)O)[C@H]1C[C@H]2Cl)c1ccncc1,13.38
7,O=C(NNC(=O)c1ccc([N+](=O)[O-])cc1C(=O)O)c1ccncc1,11.81
8,O=C(N/N=C/C[C@@H]1[C@@H](CO)[C@H](O)C[C@@H]1O)c1ccncc1,10.76
9,CC(C)(C)[Si](C)(C)O[C@H](/C=C/[C@@H]1[C@@H](CC=NNC(=O)c2ccncc2)[C@@H](O)C[C@H]1O[Si](C)(C)C(C)(C)C)CCc1ccccc1,9.23
10,O=C(NN=CC[C@H]1[C@H](CO)[C@@H](O)C[C@H]1O)c1ccncc1,4.84
11,COC(=O)CCCCCC[C@@H]1[C@@H](/C=N/NC(=O)c2ccncc2)[C@H](OC(=O)c2ccccc2)C[C@@H]1O,12.31
12,O=C(NNC(=O)c1cccc([N+](=O)[O-])c1C(=O)O)c1ccncc1,16.31
13,O=C(NNC(c1ccccc1)(c1ccccc1)c1ccccc1)c1ccncc1,3.34
14,O=C(NNC(=O)[C@@H]1C[C@H](C(=O)O)[C@@H]2CCC[C@@H]21)c1ccncc1,10.07
15,O=C(ON/N=C/[C@@H]1[C@@H]2C[C@H](Cl)[C@H]1C[C@H]2O)c1ccncc1,17.71
16,O=C(N/N=C/C[C@@H]1[C@@H](/C=N/NC(=O)c2ccncc2)[C@H](O)C[C@@H]1O)c1ccncc1,6
17,O=C(N/N=C1/C[C@@H]2[C@H](COC(c3ccccc3)(c3ccccc3)c3ccccc3)C[C@H](COC(c3ccccc3)(c3ccccc3)c3ccccc3)[C@@H]2C1)c1ccncc1,1.65
18,O=C(NN=C[C@H]1[C@H]2CC(O)OC[C@H]2C[C@H]1O)c1ccncc1 (some centres not stated),5.76
19,O=C(N/N=C1/C[C@@H]2[C@H](C1)[C@H](OC(=O)c1ccccc1)C[C@@H]2OC(=O)c1ccccc1)c1ccncc1,3.94

row,Compound,Inhibition [%]
1,O=C(N/N=C1/C[C@H]2[C@H](CO)[C@@H]1C[C@@H]2Cl)c1ccncc1,8.22
2,O=C(NN=CC[C@@H]1[C@@H](/C=C/[C@@H](O)CCc2ccccc2)[C@H](O)C[C@@H]1O)c1ccncc1,6.33
3,O=C(N/N=C/C[C@@H]1[C@@H](/C=C/[C@@H](O)COc2cccc(Cl)c2)[C@H](O)C[C@@H]1O)c1ccncc1,9.98
4,CC(C)(C)[Si](C)(C)OCC1C2C[C@H]3C1[C@@H]3/C2=N/NC(=O)c1ccncc1 (some centres not stated),4.48
5,O=C(NN=CC[C@@H]1[C@@H](/C=C/[C@@H](O)CCc2ccccc2)[C@H](OC(=O)c2ccccc2)C[C@@H]1O)c1ccncc1,6.14
6,O=C(NN=C[C@H]1[C@@H]2CCO[C@@H]2C[C@@H]1O)c1ccncc1,8.2
7,O=C(N/N=C/[C@@H]1C[C@H](CO)[C@@H]2CCC[C@@H]21)c1ccncc1,7.3
8,CC(C)(C)[Si](C)(C)OC[C@H]1[C@H](CC=NNC(=O)c2ccncc2)[C@H](O)C[C@@H]1O[Si](C)(C)C(C)(C)C,18.94
9,O=C(N/N=C1/C2C[C@H]3C(C2C(=O)O)[C@@H]13)c1ccncc1 (some centres not stated),8.7
10,NNC(=O)c1ccncc1 [ISONIAZID],7.52
11,O=C(N/N=C/COc1cccc(Cl)c1)c1ccncc1,5.96
12,COC(=O)C[C@H]1[C@H](/C=N\NC(=O)c2ccncc2)[C@@H](O[Si](C)(C)C(C)(C)C)C[C@@H]1Cl,20.06
13,O=C(N/N=C1/C2C[C@H]3C(C2CO)[C@H]13)c1ccncc1 (some centres not stated),4.37
14,O=C(N/N=C/C[C@@H]1[C@@H](/C=C/[C@@H](O)COc2ccccc2)[C@H](O)C[C@@H]1O)c1ccncc1,10.09
15,O=C(NN=CC[C@@H]1[C@@H](COC2CCCCO2)[C@H](OC2CCCCO2)C[C@@H]1O)c1ccncc1 (some centres not stated),6.84
16,O=C(N/N=C1\C[C@@H]2[C@@H](CO)[C@H]1C[C@H]2Cl)c1ccncc1,6.24
17,O=C(N/N=C/CCCO)c1ccncc1,1.13
18,O=C(N/N=C1\C[C@@H]2[C@H](COC(c3ccccc3)(c3ccccc3)c3ccccc3)C[C@H](CO)[C@@H]2C1)c1ccncc1,4.55

# Arranged by count of non-hydrogen atoms (low to high): part of the list above
row,Compound,Inhibition [%]
1,O=C(N/N=C1/C[C@H]2[C@H](CO)[C@@H]1C[C@@H]2Cl)c1ccncc1,8.22
15,O=C(ON/N=C/[C@@H]1[C@@H]2C[C@H](Cl)[C@H]1C[C@H]2O)c1ccncc1,17.71
5,O=C(NN=CC[C@@H]1[C@@H](/C=C/[C@@H](O)CCc2ccccc2)[C@H](OC(=O)c2ccccc2)C[C@@H]1O)c1ccncc1,6.14
